Experimental data: patent US10494410B2, “Inhibitor Peptides of ERK-type MAP kinase” (Universite Pierre Et Marie Curie, priority 2005, dated 2019)
Part of at least one peptide drawing is inferred or uncertain, most often the ends. Ends that are not written are not given here.

Columns and labels:
Elk-1 [1] = test: Cocaine-induced activation of Elk-1 in the striatum in vivo, immunohistofluorescence; details: mouse; 0.5 μl of 1 mM peptide intrastriatally; cocaine 20 mg/kg i.p. after one hour; 10 minutes after cocaine
ERK [2] = test: Glutamate-induced ERK activation and nuclear translocation in primary striatal neurons (Western blotting, immunofluorescence); format: cell-based, mice; details: peptide 5 μM one hour, glutamate 100 μM 20 minutes
Elk-1 [3] = test: Glutamate-induced activation of Elk-1 in primary striatal neurons, Western blotting; format: cell-based, mice; details: peptide 5 μM one hour, glutamate 100 μM 20 minutes
MSK1 = test: Glutamate-induced activation of MSK1 in primary striatal neurons, immunofluorescence; format: cell-based, mice; details: peptide 5 μM one hour, glutamate 100 μM 20 minutes
ERK/Elk-1 interaction = ERK/Elk-1 interaction in striatal neuron extracts, anti-Elk-1 immunoprecipitation and anti-ERK Western blotting; format: cell-based, mice; details: striatal neurons; peptide 5 μM; basal conditions and glutamate treatment
ERK [4] = test: Cocaine-induced activation of ERK in the striatum in vivo, immunohistofluorescence; details: mouse; 0.5 μl of 1 mM peptide intrastriatally; cocaine 20 mg/kg i.p. after one hour; 10 minutes after cocaine
ERK [5] = test: Serum-induced activation of ERK (P-ERK1/2) in HEK cells, Western blotting; format: cell-based; details: peptide 10 μM, 40 minutes, then serum 10%

Q: Which “activation of Elk-1 induced in the striatum by cocaine” value (Elk-1 [1]) does the source give for “GRKKRRQRRRPPSPAKLSFQFPSGSAQVHI [Peptide P2]” here?
A: Its value is “only the activation of ERK is detectable”.

Q: And the “activation of ERK induced by glutamate” value (ERK [2])?
A: Its value is “does not block”.

Q: And the “nuclear translocation of ERK induced by glutamate” value (ERK [2])?
A: Its value is “does not block”.

Q: And the “glutamate-induced activation of Elk-1” value (Elk-1 [3])?
A: The value was “blocks”.

Q: What about the “glutamate-induced activation of MSK1” value (MSK1) of the same sequence?
A: Its value is “without impairing”.

Q: And the “interference with the ERK/Elk-1 interaction” value (ERK/Elk-1 interaction)?
A: The value was “completely interferes”.

Q: What about the “activation of ERK induced in the striatum by cocaine” value (ERK [4]) of the same sequence?
A: The value was “only the activation of ERK is detectable”.

Q: And the “induction of P-ERK by serum” value (ERK [5])?
A: Its value is “not modified”.
